From paper PMC11148069

Molecular target: His14-NEDD8-tagged APD of xtNup98 (715–866) (Xenopus tropicalis)
Test: pull-down; His14-NEDD8-APD of xtNup98 immobilised on Ni2+ chelate matrix, incubated with xNup98-Nb1t or xhNup98-Nb2i, then xNup96(1–20)-RFP or xtNup88(2–500) added; eluted by NEDP1; SDS-PAGE/Coomassie; both purified

binding: binds
B1: N-terminal β-propeller of xtNup88 (residues 2–500) (domain or fragment, UniProt F7C806 2-500)
chain: AAGEHWQSSLSEHALFSRLKERTREVEELREEGERRTRKDKQLRNLLCVLDGDLLVWDSEECAFLTVRLRSLSVESTGSSGEQKLLCTNPPLFEVNEVLLSPTQHHVALVGSKGVMVLEIPKRWGKKSEFEGGEKTVNCRAIPIAERIFTSSTSLVLKQALWYPSETQEPHLILLTSDNILRLYNLHDPLTPEKVISLSSAEEETTLPHNGRSYKASLGETAVACDFGPLTPLPKGFGQYNKEDTVAYPLYILYETGETYLMYIDLQKSNIKVGKLLGPLPMYPAAEDNYGYDACAVLCLACVPNIIVIATESGLLYHCVVLEGEDDDEQTSNKSWNSSCDLIPSLYVFECVELELALKLATEEEESMELDFSCPIKLHRDPICPSRYHCTHVAGVHSVGLAWFNKLEKFLGSGEEDKDSLQELAAEQKCLVEHILCTKPLRCRLPSPIQGFWIISDLSLGTSMICITCDFECIARPLLTTIRPPSPPLLCFKIDKSST

These are yes or no findings as the source states them, for the method shown. A result given as binding can be weak or reduced; the word gives no strength.
